Source: PubChem BioAssay AID1224830 (NIAID, 2016)
Here is an unselected part of about 18,000 reagents. Over the whole deposit, about 2,900 (16%) were called active. 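Calls are made per well; low scores hint the gene aids the LPS response, high scores that it dampens it.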 Unmarked entries are inactive. Repeated entries: four replicate wells of each siRNA pool.

Aim: 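Regulators of TLR4 signalling towards TNF-alpha in macrophage-like cells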 (primary screen)
Cells: human THP-1 monocytic leukaemia cells, TNF dual-luciferase reporter clone, PMA-differentiated to macrophage-like cells
Reagent: siRNA pool against human genes, 50 nM
Time to read-out: LPS for 4 h, given about 3 days after siRNA transfection
Treatment: bacterial LPS (TLR4 ligand), 10 ng/ml
Measurement: 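TNF firefly reporter luminescence divided by renilla, normalised to the plate median, then turned into a robust z-score for each replicate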
Reading the numbers: TNF reporter robust z-score: higher = stronger TNF reporter response to LPS
Rule for the call: 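Each well counts as active if its z-score is over 2.8 or under -1.5; controls are left without a call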

| target | TNF reporter robust z-score |
| --- | --- |
| SLC37A4 | -0.06 |
| SLC37A4 | 0.17 |
| SLC37A4 | -0.3 |
| SLC37A4 | 0.1 |
| HMGXB4 | -0.68 |
| HMGXB4 | -0.15 |
| HMGXB4 | -0.09 |
| HMGXB4 | 0.37 |
| CACNG5 | 1.07 |
| CACNG5 | 1.56 |
| CACNG5 | 1.79 |
| CACNG5 | 1.41 |
| ICA1 | -0.66 |
| ICA1 | -0.06 |
| ICA1 | 0.07 |
| ICA1 | 0.1 |
| ZNF821 | 0.59 |
| ZNF821 | 0.25 |
| ZNF821 | -0.03 |
| ZNF821 | 0.51 |
| HERC5 | 0.4 |
| HERC5 | 0.17 |
| HERC5 | 1.78 |
| HERC5 | 0.5 |
| SYT16 | -0.76 |
| SYT16 | -0.85 |
| SYT16 | -0.7 |
| SYT16 | -0.5 |
| FAAH2 | 0.84 |
| FAAH2 | 0.81 |
| FAAH2 | -1.24 |
| LARGE1 | 0.07 |
| LARGE1 | 0.53 |
| LARGE1 | -0.06 |
| LARGE1 | 1.42 |
| TMEM229B | -1.35 |
| TMEM229B | -0.94 |
| TMEM229B | -1.17 |
| TMEM229B | -1.39 |
| PLCL1 | -0.51 |
| PLCL1 | -1.13 |
| PLCL1 | -0.61 |
| PLCL1 | -0.44 |
| ZFP69B | -1.14 |
| ZFP69B | -0.82 |
| ZFP69B | -1.02 |
| ZFP69B | -1.07 |

Targets listed so far whose gene name begins with S or s:
| target | TNF reporter robust z-score |
| --- | --- |
| SLC37A4 | -0.06 |
| SLC37A4 | 0.17 |
| SLC37A4 | -0.3 |
| SLC37A4 | 0.1 |
| SYT16 | -0.76 |
| SYT16 | -0.85 |
| SYT16 | -0.7 |
| SYT16 | -0.5 |
